The list shows a part of the results.
Tests used:
Assay in all cases: log2 fold change, soluble protein after heating vs DMSO (PISA); higher = thermal stabilisation; K562 lysate, 10 uM; active = over 0.2 and 3.5 SD of the protein, either way, in both replicates (recomputed)
[1] = compound: C=CC(=O)N1CCC[C@@H](n2nc(-c3ccc(Oc4ccccc4)cc3)c3c(N)ncnc32)C1 [ibrutinib]
Summary of the method: (§1)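 K562 pellets were dounce-homogenised in PBS pH 7.4 containing 1 mM MgCl2, and the crude extract, at 1 mg/mL protein, was exposed to 10 μM compound for 30 min. Aliquots were heated for 3 min across 48°C-58°C, pooled, brought to 0.5% NP-40 at 4°C and spun at 21,000xg for 90 min, with the supernatant taken as soluble protein. TMTpro 16plex LC-MS/MS with equalised channel sums quantified that protein. Values are log-two fold changes in thermal stability relative to solvent controls, taken from duplicates.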

By UniProt entry, the sequences of proteins in these tests, tags left out. Where a name states a change or a piece, a line headed by the entry shows the natural chain unless it says otherwise.
UniProt Q96T21: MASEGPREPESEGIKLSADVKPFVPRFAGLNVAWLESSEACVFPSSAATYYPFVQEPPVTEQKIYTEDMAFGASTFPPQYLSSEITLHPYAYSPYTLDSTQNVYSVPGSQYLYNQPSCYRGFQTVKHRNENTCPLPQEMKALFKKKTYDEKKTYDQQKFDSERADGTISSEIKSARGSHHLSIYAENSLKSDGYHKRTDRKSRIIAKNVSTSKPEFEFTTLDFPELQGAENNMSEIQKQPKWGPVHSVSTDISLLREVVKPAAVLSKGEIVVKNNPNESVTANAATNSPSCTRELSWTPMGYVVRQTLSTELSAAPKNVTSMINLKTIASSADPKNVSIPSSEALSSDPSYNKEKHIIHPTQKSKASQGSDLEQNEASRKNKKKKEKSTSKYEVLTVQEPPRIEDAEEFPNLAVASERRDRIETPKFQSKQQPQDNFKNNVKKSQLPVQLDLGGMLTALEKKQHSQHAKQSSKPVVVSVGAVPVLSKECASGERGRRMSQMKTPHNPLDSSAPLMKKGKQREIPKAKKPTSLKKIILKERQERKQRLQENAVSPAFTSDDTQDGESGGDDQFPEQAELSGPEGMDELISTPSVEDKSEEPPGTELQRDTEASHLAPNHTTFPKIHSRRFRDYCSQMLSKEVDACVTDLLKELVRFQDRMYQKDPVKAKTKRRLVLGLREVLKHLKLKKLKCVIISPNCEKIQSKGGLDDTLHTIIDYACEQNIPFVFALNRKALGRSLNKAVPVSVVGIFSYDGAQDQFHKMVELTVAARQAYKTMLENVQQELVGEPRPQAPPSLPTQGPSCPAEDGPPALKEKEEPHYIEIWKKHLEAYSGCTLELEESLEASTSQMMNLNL
UniProt Q5VUM1: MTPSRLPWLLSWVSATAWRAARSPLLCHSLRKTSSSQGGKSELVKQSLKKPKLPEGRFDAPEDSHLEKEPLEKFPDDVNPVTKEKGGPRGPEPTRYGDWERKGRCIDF
UniProt Q14108: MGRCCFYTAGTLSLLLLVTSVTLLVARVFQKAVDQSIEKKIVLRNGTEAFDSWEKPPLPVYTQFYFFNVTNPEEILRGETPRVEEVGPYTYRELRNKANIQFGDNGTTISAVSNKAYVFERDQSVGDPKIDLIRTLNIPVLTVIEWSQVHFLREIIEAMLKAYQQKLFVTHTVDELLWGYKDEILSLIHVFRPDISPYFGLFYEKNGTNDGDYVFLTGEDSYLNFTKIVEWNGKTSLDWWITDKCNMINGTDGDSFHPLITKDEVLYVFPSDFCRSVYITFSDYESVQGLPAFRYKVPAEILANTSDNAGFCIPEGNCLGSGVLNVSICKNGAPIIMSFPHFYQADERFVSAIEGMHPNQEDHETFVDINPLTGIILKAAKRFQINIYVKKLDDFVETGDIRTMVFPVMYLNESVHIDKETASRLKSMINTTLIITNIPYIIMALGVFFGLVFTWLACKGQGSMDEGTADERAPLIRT
UniProt Q9Y6D0, whole entry, looked up: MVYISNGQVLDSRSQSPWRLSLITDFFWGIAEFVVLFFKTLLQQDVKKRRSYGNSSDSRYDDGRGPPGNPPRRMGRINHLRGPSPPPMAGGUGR
UniProt Q8IZE3: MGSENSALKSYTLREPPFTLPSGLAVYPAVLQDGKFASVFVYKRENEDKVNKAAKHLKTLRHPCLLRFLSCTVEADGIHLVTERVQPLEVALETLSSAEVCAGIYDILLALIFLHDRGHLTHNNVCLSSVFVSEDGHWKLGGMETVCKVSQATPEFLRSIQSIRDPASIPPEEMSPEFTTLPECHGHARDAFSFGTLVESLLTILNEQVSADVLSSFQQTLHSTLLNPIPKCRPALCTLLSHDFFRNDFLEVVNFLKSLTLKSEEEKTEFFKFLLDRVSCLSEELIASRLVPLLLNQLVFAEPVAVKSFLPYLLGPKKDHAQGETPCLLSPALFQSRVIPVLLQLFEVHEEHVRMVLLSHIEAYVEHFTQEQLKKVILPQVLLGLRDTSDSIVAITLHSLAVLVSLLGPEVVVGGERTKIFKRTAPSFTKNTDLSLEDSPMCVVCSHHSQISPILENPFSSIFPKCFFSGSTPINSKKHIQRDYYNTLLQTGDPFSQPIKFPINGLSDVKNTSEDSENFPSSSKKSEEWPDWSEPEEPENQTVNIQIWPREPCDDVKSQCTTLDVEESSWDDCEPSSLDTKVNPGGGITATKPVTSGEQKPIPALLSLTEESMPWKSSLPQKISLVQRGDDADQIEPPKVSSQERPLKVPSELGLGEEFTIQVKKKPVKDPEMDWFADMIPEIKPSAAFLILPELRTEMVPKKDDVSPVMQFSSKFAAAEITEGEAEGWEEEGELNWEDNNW
UniProt Q9NXZ1: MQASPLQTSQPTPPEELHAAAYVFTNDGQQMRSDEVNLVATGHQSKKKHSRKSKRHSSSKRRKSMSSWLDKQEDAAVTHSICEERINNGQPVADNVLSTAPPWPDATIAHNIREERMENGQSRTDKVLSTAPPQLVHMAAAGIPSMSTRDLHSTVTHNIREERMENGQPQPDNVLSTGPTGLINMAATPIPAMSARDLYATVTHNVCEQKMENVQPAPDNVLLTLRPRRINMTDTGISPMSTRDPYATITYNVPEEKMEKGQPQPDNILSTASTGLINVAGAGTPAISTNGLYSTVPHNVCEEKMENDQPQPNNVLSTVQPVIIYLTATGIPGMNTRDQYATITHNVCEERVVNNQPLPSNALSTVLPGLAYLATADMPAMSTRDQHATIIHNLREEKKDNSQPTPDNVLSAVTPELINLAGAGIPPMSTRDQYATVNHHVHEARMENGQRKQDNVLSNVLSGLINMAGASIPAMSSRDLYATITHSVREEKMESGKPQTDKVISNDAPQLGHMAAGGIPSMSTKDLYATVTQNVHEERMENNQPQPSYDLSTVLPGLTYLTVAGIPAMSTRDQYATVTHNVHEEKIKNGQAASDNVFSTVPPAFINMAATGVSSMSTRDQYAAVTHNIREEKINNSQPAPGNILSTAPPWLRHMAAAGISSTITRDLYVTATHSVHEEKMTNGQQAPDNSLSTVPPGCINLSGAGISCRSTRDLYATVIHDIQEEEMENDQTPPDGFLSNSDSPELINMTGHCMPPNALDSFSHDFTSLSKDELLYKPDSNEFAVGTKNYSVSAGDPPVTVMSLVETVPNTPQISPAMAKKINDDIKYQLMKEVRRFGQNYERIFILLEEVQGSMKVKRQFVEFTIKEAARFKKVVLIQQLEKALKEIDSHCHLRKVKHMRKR

[2] = compound: CC(=O)c1cnc2ccc(-c3cc(Cl)c(O)c(Cl)c3)nc2c1N[C@H]1CC[C@H](CN(C)C)CC1
Summary of the method: as §1

[3] = compound: CC(C)(C)Cn1c(N)nc2ccc(-c3[nH]c(C(C)(C)C)nc3-c3ccc(F)cc3)nc21 [ralimetinib]
Summary of the method: as §1

[4] = compound: CC(C)(O)CC(=O)NCCn1ccc2ncnc(Nc3ccc(Oc4cccc(C(F)(F)F)c4)c(Cl)c3)c21
Summary of the method: as §1

[5] = compound: CC1=C(C(CC(=O)N1)C2=CC=C(C=C2)C(F)(F)F)C(=O)NC3=C(C=C4C(=C3)C=NN4)F
Summary of the method: as §1

[6] = compound: CC1=C(C2=C(C=C1)C(=O)C3=CC=CC=C3N2CCCN)C
Summary of the method: as §1

[7] = compound: CC1=C(C=C(C=C1)NC(=O)C2=CC(=CC=C2)C(C)(C)C#N)NC3=CC4=C(C=C3)N=CN(C4=O)C
Summary of the method: as §1

[8] = compound: CC1=C(C=C(C=C1)NC(=O)C2=CC(=CC=C2)N(C)C)NC(=O)C3=CC=C(C=C3)O
Summary of the method: as §1

[9] = compound: CC1=CC=C(C=C1)SC2=C3C=C(SC3=CN=C2)C(=O)N
Summary of the method: as §1

[10] = compound: CCCS(=O)(=O)Nc1ccc(F)c(C(=O)c2c[nH]c3ncc(-c4ccc(Cl)cc4)cc23)c1F [vemurafenib]
Summary of the method: as §1

[11] = compound: CCCS(=O)(=O)Nc1ccc(F)c(C(=O)c2c[nH]c3ncc(Cl)cc23)c1F
Summary of the method: as §1

[12] = compound: CCN(CCCOc1ccc2c(Nc3cc(CC(=O)Nc4cccc(F)c4)[nH]n3)ncnc2c1)CCOP(=O)(O)O [barasertib]
Summary of the method: as §1

[13] = compound: CC[C@@H]1C(=O)N(C)c2cnc(Nc3ccc(C(=O)NC4CCN(C)CC4)cc3OC)nc2N1C1CCCC1
Summary of the method: as §1

[14] = compound: CC[C@@H]1C(=O)N(C)c2cnc(Nc3ccc(C(=O)N[C@H]4CC[C@H](N5CCN(CC6CC6)CC5)CC4)cc3OC)nc2N1C(C)C [volasertib]
Summary of the method: as §1

[15] = compound: CCn1c(C(=O)N(C2CC2)C2CC2)cc2c3c(ncn3C)c(Nc3cc(C)n(C)n3)nc21
Summary of the method: as §1

[16] = compound: CCn1cc(-c2ccnc3[nH]c(-c4cccc(CN(C)C)c4)cc23)c(-c2ccc(NC(=O)N(C)C)cc2)n1
Summary of the method: as §1

[17] = compound: CN1CCC(CNc2ccc3ncc(-c4cccc(OC(F)(F)F)c4)n3n2)CC1
Summary of the method: as §1

[18] = compound: CN1CCN(CCOc2cc(OC3CCOCC3)c3c(Nc4c(Cl)ccc5c4OCO5)ncnc3c2)CC1 [saracatinib]
Summary of the method: as §1

[19] = compound: CN1CCN(c2nc(C3=C(c4c[nH]c5ccccc45)C(=O)NC3=O)c3ccccc3n2)CC1 [sotrastaurin]
Summary of the method: as §1

[20] = compound: CC(C)C1=C2N=C(C=C(N2N=C1)NCC3=CC=CC=C3)NCCCCCCN
Summary of the method: as §1

Target | log2 fold change [1] | log2 fold change [2] | log2 fold change [3] | log2 fold change [4] | log2 fold change [5] | log2 fold change [6] | log2 fold change [7] | log2 fold change [8] | log2 fold change [9] | log2 fold change [10] | log2 fold change [11] | log2 fold change [12] | log2 fold change [13] | log2 fold change [14] | log2 fold change [15] | log2 fold change [16] | log2 fold change [17] | log2 fold change [18] | log2 fold change [19] | log2 fold change [20]
SECISBP2 (UniProt Q96T21) | inactive: 0.036 | inactive: -0.097 | inactive: -0.138 | inactive: 0.015 | inactive: 0.116 | inactive: -0.051 | inactive: 0.023 | inactive: 0.05 | inactive: -0.214 | inactive: 0.13 | inactive: -0.019 | inactive: 0.03 | inactive: 0.048 | inactive: 0.148 | inactive: 0.16 | inactive: -0.039 | inactive: 0.062 | inactive: -0.009 | inactive: 0.354 | 
SDHAF4 (UniProt Q5VUM1) | inactive: 0.094 | inactive: -0.028 |  |  |  | inactive: -0.06 | inactive: -0.069 |  | inactive: -0.055 | inactive: -0.02 | inactive: 0.047 | inactive: 0.049 | inactive: 0.085 | inactive: 0.015 |  | inactive: 0.018 | inactive: 0.014 | inactive: 0.022 | inactive: 0.051 | inactive: -0.029
SCARB2 isoform 2 (UniProt Q14108) | inactive: 0.007 | inactive: 0.084 |  |  | inactive: -0.042 | inactive: -0.523 |  |  | inactive: -0.042 |  | inactive: -0.063 | inactive: -0.085 |  | inactive: 0.052 |  | inactive: -0.156 | inactive: 0.069 | inactive: -0.025 |  | 
SELENOK (UniProt Q9Y6D0) | inactive: 0.05 | inactive: -0.134 |  |  | inactive: 0.092 | inactive: -0.164 |  |  | inactive: 0.022 | inactive: -0.034 | inactive: -0.004 | inactive: -0.022 |  | inactive: 0.062 |  | inactive: -0.593 | active: 0.529 | inactive: -0.021 |  | 
SEC31A (UniProt H0YAB3) | inactive: 0.001 | inactive: -0.003 | inactive: -0.033 | inactive: 0.015 | inactive: 0.008 | inactive: -0.029 |  | inactive: -0.01 | inactive: -0.082 |  | inactive: -0.036 | inactive: -0.037 |  | inactive: -0.026 | inactive: -0.039 | inactive: -0.025 | inactive: 0.028 | inactive: 0.004 |  | inactive: -0.064
SCYL3 isoform 2 (UniProt Q8IZE3) | inactive: 0.014 |  | inactive: 0.002 | inactive: -0.047 | inactive: 0.006 | inactive: 0.03 | inactive: 0.003 | inactive: 0.1 |  | inactive: 0.007 |  | inactive: 0.047 | inactive: 0.024 |  | inactive: 0.015 | inactive: -0.242 | inactive: -0.01 | inactive: 0.031 | inactive: 0.034 | inactive: 0.01
SAGE1 (UniProt Q9NXZ1) |  |  | inactive: 0.006 | inactive: 0.009 | inactive: 0.007 | inactive: -0.164 | inactive: -0.003 | inactive: -0.054 |  |  |  |  | inactive: 0.018 |  | inactive: 0.014 | inactive: -0.077 | inactive: -0.134 | inactive: 0.205 | inactive: -0.036 | inactive: -0.084
SDCCAG8 (UniProt S4R323) |  |  | inactive: 0.067 | inactive: 0.031 |  |  | inactive: -0.021 | inactive: 0.023 |  |  |  |  |  |  | inactive: 0.056 |  |  |  | inactive: -0.272 | inactive: 0.467

Source: the supplement of paper PMC10849652
